{"source": "PubChem BioAssay AID1159579, Peter MacCallum Cancer Centre, 2015", "screen": "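Find genes whose silencing alters migration of lymphatic endothelial cells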 (follow-up of hits)", "system": "human dermal lymphatic endothelial cells", "reagents": "single siRNA against human genes, 25 nM", "detection": "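High content images of wound closure area and cell nuclei counts, each the average of two wells, expressed against mock transfection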", "scale": "migration relative to mock: higher = more migration into the scratch; mean nuclei count: higher = more cells remaining", "call rule": "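Called active when the migration ratio is 0.6 or lower (impaired) or 1.3 or higher (accelerated), but inactive whenever the mean nuclei count falls under 3300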", "calls": "active = migration changed (impaired or accelerated); inactive = no migration change, or too few cells", "note": "Shown is an unselected part of about 2,000 deposited reagents. In the full data, 549 (27%) were called active. 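Some migration ratios are negative; siRNAs with too few cells are inactive whatever their migration ratio.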 Entries without a mark were called inactive. The numbers tell different reagents against one gene apart. Not given: the time to read-out."}
{"gene knocked down": "SH3BGRL2 (GeneID 83699)", "siRNA no.": 1, "migration relative to mock": 0.95, "migration and cell number class": "no change in migration or cell number", "mean nuclei count": 5542}
{"gene knocked down": "SH3BGRL2 (GeneID 83699)", "siRNA no.": 2, "migration relative to mock": 0.65, "migration and cell number class": "no change in migration or cell number", "mean nuclei count": 4708}
{"gene knocked down": "SH3BGRL2 (GeneID 83699)", "siRNA no.": 3, "migration relative to mock": 1.06, "migration and cell number class": "no change in migration or cell number", "mean nuclei count": 6350}
{"gene knocked down": "SH3BGRL2 (GeneID 83699)", "siRNA no.": 4, "migration relative to mock": 1.03, "migration and cell number class": "no change in migration or cell number", "mean nuclei count": 6102}
{"gene knocked down": "EGR1 (GeneID 1958)", "siRNA no.": 1, "migration relative to mock": 0.88, "migration and cell number class": "no change in migration or cell number", "mean nuclei count": 6028}
{"gene knocked down": "EGR1 (GeneID 1958)", "siRNA no.": 2, "migration relative to mock": 1.12, "migration and cell number class": "no change in migration or cell number", "mean nuclei count": 6324}
{"gene knocked down": "EGR1 (GeneID 1958)", "siRNA no.": 3, "migration relative to mock": "0.28 (active)", "migration and cell number class": "migration reduced", "mean nuclei count": 4212}
{"gene knocked down": "EGR1 (GeneID 1958)", "siRNA no.": 4, "migration relative to mock": 0.9, "migration and cell number class": "no change in migration or cell number", "mean nuclei count": 5494}
{"gene knocked down": "CDC42 (GeneID 998)", "siRNA no.": 1, "migration relative to mock": "0.54 (active)", "migration and cell number class": "migration reduced", "mean nuclei count": 5018}
{"gene knocked down": "CDC42 (GeneID 998)", "siRNA no.": 2, "migration relative to mock": "0.31 (active)", "migration and cell number class": "migration reduced", "mean nuclei count": 6118}
{"gene knocked down": "CDC42 (GeneID 998)", "siRNA no.": 3, "migration relative to mock": "-0.02 (active)", "migration and cell number class": "migration reduced", "mean nuclei count": 5122}
{"gene knocked down": "CDC42 (GeneID 998)", "siRNA no.": 4, "migration relative to mock": "0.53 (active)", "migration and cell number class": "migration reduced", "mean nuclei count": 5800}
{"gene knocked down": "CCS (GeneID 9973)", "siRNA no.": 1, "migration relative to mock": 1.15, "migration and cell number class": "no change in migration or cell number", "mean nuclei count": 5746}
{"gene knocked down": "CCS (GeneID 9973)", "siRNA no.": 2, "migration relative to mock": -1.16, "migration and cell number class": "too few cells; migration not scored", "mean nuclei count": 2882}
{"gene knocked down": "CCS (GeneID 9973)", "siRNA no.": 3, "migration relative to mock": "0.14 (active)", "migration and cell number class": "migration reduced", "mean nuclei count": 5616}
{"gene knocked down": "CCS (GeneID 9973)", "siRNA no.": 4, "migration relative to mock": "0.48 (active)", "migration and cell number class": "migration reduced", "mean nuclei count": 4980}
{"gene knocked down": "PPP1R15A (GeneID 23645)", "siRNA no.": 1, "migration relative to mock": 1, "migration and cell number class": "no change in migration or cell number", "mean nuclei count": 4472}
{"gene knocked down": "PPP1R15A (GeneID 23645)", "siRNA no.": 2, "migration relative to mock": 0.99, "migration and cell number class": "no change in migration or cell number", "mean nuclei count": 4571}
{"gene knocked down": "PPP1R15A (GeneID 23645)", "siRNA no.": 3, "migration relative to mock": 1.21, "migration and cell number class": "no change in migration or cell number", "mean nuclei count": 5104}
{"gene knocked down": "PPP1R15A (GeneID 23645)", "siRNA no.": 4, "migration relative to mock": 1.13, "migration and cell number class": "no change in migration or cell number", "mean nuclei count": 5751}

The list goes on (4 carried over from the part before).
{"gene knocked down": "PPP1R15A (GeneID 23645)", "siRNA no.": 1, "migration relative to mock": 1, "migration and cell number class": "no change in migration or cell number", "mean nuclei count": 4472}
{"gene knocked down": "PPP1R15A (GeneID 23645)", "siRNA no.": 2, "migration relative to mock": 0.99, "migration and cell number class": "no change in migration or cell number", "mean nuclei count": 4571}
{"gene knocked down": "PPP1R15A (GeneID 23645)", "siRNA no.": 3, "migration relative to mock": 1.21, "migration and cell number class": "no change in migration or cell number", "mean nuclei count": 5104}
{"gene knocked down": "PPP1R15A (GeneID 23645)", "siRNA no.": 4, "migration relative to mock": 1.13, "migration and cell number class": "no change in migration or cell number", "mean nuclei count": 5751}
{"gene knocked down": "RRP1 (GeneID 8568)", "siRNA no.": 1, "migration relative to mock": 0.88, "migration and cell number class": "no change in migration or cell number", "mean nuclei count": 6034}
{"gene knocked down": "RRP1 (GeneID 8568)", "siRNA no.": 2, "migration relative to mock": 0.72, "migration and cell number class": "no change in migration or cell number", "mean nuclei count": 5022}
{"gene knocked down": "RRP1 (GeneID 8568)", "siRNA no.": 3, "migration relative to mock": 0.7, "migration and cell number class": "no change in migration or cell number", "mean nuclei count": 5965}
{"gene knocked down": "RRP1 (GeneID 8568)", "siRNA no.": 4, "migration relative to mock": 0.76, "migration and cell number class": "no change in migration or cell number", "mean nuclei count": 5642}
{"gene knocked down": "LPL (GeneID 4023)", "siRNA no.": 1, "migration relative to mock": 0.75, "migration and cell number class": "no change in migration or cell number", "mean nuclei count": 5134}
{"gene knocked down": "LPL (GeneID 4023)", "siRNA no.": 2, "migration relative to mock": "0.51 (active)", "migration and cell number class": "migration reduced", "mean nuclei count": 4884}
{"gene knocked down": "LPL (GeneID 4023)", "siRNA no.": 3, "migration relative to mock": "0.42 (active)", "migration and cell number class": "migration reduced", "mean nuclei count": 5216}
{"gene knocked down": "LPL (GeneID 4023)", "siRNA no.": 4, "migration relative to mock": 0.66, "migration and cell number class": "no change in migration or cell number", "mean nuclei count": 5949}
{"gene knocked down": "MTARC1 (GeneID 64757)", "siRNA no.": 1, "migration relative to mock": "0.54 (active)", "migration and cell number class": "migration reduced", "mean nuclei count": 5203}
{"gene knocked down": "MTARC1 (GeneID 64757)", "siRNA no.": 2, "migration relative to mock": 0.78, "migration and cell number class": "no change in migration or cell number", "mean nuclei count": 6352}
{"gene knocked down": "MTARC1 (GeneID 64757)", "siRNA no.": 3, "migration relative to mock": "0.5 (active)", "migration and cell number class": "migration reduced", "mean nuclei count": 5511}
{"gene knocked down": "MTARC1 (GeneID 64757)", "siRNA no.": 4, "migration relative to mock": 0.8, "migration and cell number class": "no change in migration or cell number", "mean nuclei count": 5491}
{"gene knocked down": "STRC (GeneID 161497)", "siRNA no.": 1, "migration relative to mock": "0.23 (active)", "migration and cell number class": "migration reduced", "mean nuclei count": 5274}
{"gene knocked down": "STRC (GeneID 161497)", "siRNA no.": 2, "migration relative to mock": "0.58 (active)", "migration and cell number class": "migration reduced", "mean nuclei count": 5308}
{"gene knocked down": "STRC (GeneID 161497)", "siRNA no.": 3, "migration relative to mock": 1.25, "migration and cell number class": "no change in migration or cell number", "mean nuclei count": 5582}
{"gene knocked down": "STRC (GeneID 161497)", "siRNA no.": 4, "migration relative to mock": 0.74, "migration and cell number class": "no change in migration or cell number", "mean nuclei count": 4488}
